Values joined by “and” are separate entries in the source; they are usually repeats but may differ in a detail not shown here. Identical values can stand only once. Further values from the same series stand in other lists.
Experiments:
nontransgenic (NTG) mice = assay: Morris water maze #2, nontransgenic (NTG) mice; settings: ISRIB 2.5mpk in DMSO/PEG
hAPP-J20 (J20) mice = assay: Morris water maze #2, hAPP-J20 mice; settings: ISRIB 2.5mpk in DMSO/PEG
nontransgenic mice = assay: Pilot Morris water maze #1 (spatial learning and memory); settings: Fig 2A
[1] = Trial 1, individual mice (Fig 4A-D)
[2] = Trial 2, individual mice (Fig 4A-D)
[3] = Trial 3, individual mice (Fig 4A-D)
[4] = Trial 4, individual mice (Fig 4A-D)
[5] = Trial 5, individual mice (Fig 4A-D)
[6] = Trial 6, individual mice (Fig 4A-D)
[7] = Trial 7, individual mice (Fig 4A-D)
[8] = ISRIB 0.1mpk, Trial 4, individual mice
[9] = ISRIB 0.1mpk, Trial 5, individual mice
[10] = ISRIB 0.1mpk, Trial 6, individual mice
[11] = ISRIB 0.25mpk, Trial 4, individual mice
[12] = ISRIB 0.25mpk, Trial 5, individual mice
[13] = ISRIB 0.25mpk, Trial 6, individual mice

With O=C(COc1ccc(Cl)cc1)NC1CCC(NC(=O)COc2ccc(Cl)cc2)CC1 (centres unmarked) [ISRIB] the “Training Latency” value (nontransgenic (NTG) mice; [1]) was 120.187 (9×) and 101.501 and 78.1448 and 53.8539, the “Training Latency” value (nontransgenic (NTG) mice; [2]) was 21.2212 and 120.187 (8×) and 120.12 and 11.5449 and 95.7624 and the “Training Latency” value (nontransgenic (NTG) mice; [3]) was 5.138 and 120.187 (3×) and 28.028 and 4.8048 and 4.738 and 62.9296 and 14.2142 and 44.9783 and 8.075 and 11.4781. The “Training Latency” value (nontransgenic (NTG) mice; [4]) was 48.7154 and 8.408 and 5.873 and 78.1448 and 4.2042 and 120.187 (2×) and 61.6617 and 30.6974 and 4.8048 and 101.568 and 17.8178, the “Training Latency” value (nontransgenic (NTG) mice; [5]) was 3.737 and 28.5619 and 40.8408 and 36.1695 and 54.3877 and 120.187 (2×) and 15.4822 and 29.8298 and 12.0787 and 2.8028 and 14.3477 and the “Training Latency” value (nontransgenic (NTG) mice; [6]) was 29.5629 and 12.3457 and 4.004 and 73.4067 and 19.1525 and 3.937 and 3.27 and 35.5689 and 4.671 and 35.035 and 49.5162 and 118.385. The “Training Latency” value (nontransgenic (NTG) mice; [7]) was 12.9463 and 8.008 and 23.6236 and 54.2542 and 18.6853 and 3.47 and 4.071 and 23.8906 and 5.2052 and 25.292 and 14.3477 and 82.4825, the “Training Latency” value (hAPP-J20 (J20) mice; [1]) was 120.187 (7×) and 57.324 and 40.2402 and 38.9056 and 24.3577 and 112.112 and the “Training Latency” value (hAPP-J20 (J20) mice; [2]) was 29.9633 and 53.1198 and 39.8398 and 120.187 (5×) and 25.9593 and 18.018 and 115.516 and 50.6506. The “Training Latency” value (hAPP-J20 (J20) mice; [3]) was 76.4097 and 120.187 (4×) and 119.653 and 28.9623 and 60.1268 and 40.04 and 19.4861 and 56.5899 and 35.7024, the “Training Latency” value (hAPP-J20 (J20) mice; [4]) was 120.187 (4×) and 8.809 and 75.5422 and 5.405 and 4.4044 and 62.4625 and 97.631 and 17.0837 and 6.673 and the “Training Latency” value (hAPP-J20 (J20) mice; [5]) was 9.943 and 27.9613 and 120.187 (4×) and 48.3817 and 113.914 and 100.968 and 49.5829 and 8.809 and 7.007. For the same compound, the “Training Latency” value (hAPP-J20 (J20) mice; [6]) was 120.187 (4×) and 26.8268 and 81.8819 and 75.9426 and 86.1528 and 27.8946 and 3.003 and 55.5222 and 61.4615, the “Training Latency” value (hAPP-J20 (J20) mice; [7]) was 57.3907 and 6.2062 and 120.187 (4×) and 60.327 and 28.3617 and 7.674 and 10.8108 and 57.9913 and 41.9753 and the Distance (nontransgenic mice; [8]) was 650.807 and 420.629 and 1636.76 and 883.886 and 1731.73. The Latency (nontransgenic mice; [8]) was 37.7377 and 24.2576 and 42.5092 and 93.5269, the Distance (nontransgenic mice; [9]) was 1341.81 and 699.948 and 847.159 and 1763.55 and 1150.46 and 304.987 and 381.494 and 469.803 and 108.785 and 430.196 and 1144.33 and 818.86 and 229.025 and 945.098 and 633.219 and the Latency (nontransgenic mice; [9]) was 58.1582 and 33.3667 and 37.0704 and 120.153 and 64.5979 and 17.017 and 29.5295 and 22.9897 and 4.771 and 22.1221 and 70.8375 and 44.9449 and 8.909 and 44.1441 and 32.0988. The Distance (nontransgenic mice; [10]) was 260.293 and 214.965 and 191.256 and 557.568 and 678.487 and 393.129 and 1784.92 and 556.271 and 874.122 and 1115.97 and 139.092 and 354.939 and 445.054 and 738.774 and 116.965, the Latency (nontransgenic mice; [10]) was 11.2779 and 11.6783 and 7.508 and 65.8325 and 47.047 and 21.4214 and 120.153 and 26.7267 and 34.7681 and 55.3554 and 7.474 and 20.8542 and 19.9533 and 39.5395 and 6.874 and the Distance (nontransgenic mice; [11]) was 2066.75 and 138.462 and 888.263 and 368.627 and 1253.81 and 1104.31 and 564.154 and 210.612 and 136.918 and 1661.81 and 1078.4 and 1565.57 and 896.6 and 308.776 and 198.869. For the same compound, the Latency (nontransgenic mice; [11]) was 120.153 (5×) and 8.175 and 17.0837 and 55.7558 and 31.4648 and 11.011 and 7.007 and 79.3794 and 36.9036 and 17.0504 and 16.6166, the Distance (nontransgenic mice; [12]) was 662.918 and 103.557 and 456.129 and 207.115 and 838.52 and 424.575 and 2434.13 and 670.464 and 143.821 and 617.072 and 478.295 and 638.17 and 467.414 and 118.041 and the Latency (nontransgenic mice; [12]) was 33.1665 and 5.3053 and 40.7741 and 8.075 and 34.7681 and 10 and 24.5913 and 120.153 and 32.7661 and 6.006 and 54.1542 and 25.6256 and 28.8288 and 22.5559 and 4.771. For the same compound, the Distance (nontransgenic mice; [13]) was 178.462 and 918.246 and 95.7893 and 564.91 and 446.944 and 152.227 and 148.151 and 101.96 and 1074.16 and 283.926 and 796.318 and 498.94 and 1083.17 and 139.405 and 329.328 and the Latency (nontransgenic mice; [13]) was 7.941 and 37.6376 and 5.3053 and 24.3243 and 20.2536 and 8.942 and 9.243 and 5.973 and 54.7548 and 12.1455 and 120.153 and 30.4304 and 48.0147 and 6.473 and 26.2596.

Source: article PMC5075699
